Some of the results follow.
What was measured:
Test in all cases: glycan array binding signal (z-score within array); higher = stronger binding
Settings in all cases: glycan notation: IUPAC condensed, linker removed
[1] = target: GlcNAc(a1-6)Gal(b1-4)GlcNAc
How it was run: (§1)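 From the Consortium for Functional Glycomics database, 3228 arrays were curated, keeping only those whose protein sequence was available. Binding is given as a within-array Z-score averaged across arrays sharing a protein sequence and across linkers. Negative Z-scores can be read as non-binding.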

[2] = target: GlcNAc(b1-2)Gal(b1-3)GalNAc
How it was run: as §1

[3] = target: GlcNAc(b1-2)Man(a1-3)[GlcNAc(b1-2)Man(a1-6)]Man(b1-4)GlcNAc(b1-4)GlcNAc
How it was run: as §1

[4] = target: GlcNAc(b1-2)Man(a1-3)[GlcNAc(b1-2)Man(a1-6)]Man(b1-4)GlcNAc(b1-4)[Fuc(a1-6)]GlcNAc
How it was run: as §1

[5] = target: GlcNAc(b1-2)Man(a1-3)[GlcNAc(b1-4)][GlcNAc(b1-2)Man(a1-6)]Man(b1-4)GlcNAc(b1-4)GlcNAc
How it was run: as §1

[6] = target: GlcNAc(b1-2)Man(a1-3)[GlcNAc(b1-4)][GlcNAc(b1-2)Man(a1-6)]Man(b1-4)GlcNAc(b1-4)[Fuc(a1-6)]GlcNAc
How it was run: as §1

[7] = target: GlcNAc(b1-2)[GlcNAc(b1-4)]Man(a1-3)[GlcNAc(b1-2)Man(a1-6)]Man(b1-4)GlcNAc(b1-4)GlcNAc
How it was run: as §1

[8] = target: GlcNAc(b1-2)[GlcNAc(b1-4)]Man(a1-3)[GlcNAc(b1-4)][GlcNAc(b1-2)Man(a1-6)]Man(b1-4)GlcNAc(b1-4)GlcNAc
How it was run: as §1

[9] = target: GlcNAc(b1-2)[GlcNAc(b1-4)]Man(a1-3)[GlcNAc(b1-4)][GlcNAc(b1-2)[GlcNAc(b1-6)]Man(a1-6)]Man(b1-4)GlcNAc(b1-4)GlcNAc
How it was run: as §1

[10] = target: GlcNAc(b1-2)[GlcNAc(b1-4)]Man(a1-3)[GlcNAc(b1-4)][GlcNAc(b1-2)[GlcNAc(b1-6)]Man(a1-6)]Man(b1-4)GlcNAc(b1-4)[Fuc(a1-6)]GlcNAc
How it was run: as §1

[11] = target: GlcNAc(b1-2)[GlcNAc(b1-6)]Man(a1-6)[GlcNAc(b1-2)Man(a1-3)]Man(b1-4)GlcNAc(b1-4)GlcNAc
How it was run: as §1

[12] = target: GlcNAc(b1-2)[GlcNAc(b1-6)]Man(a1-6)[GlcNAc(b1-2)Man(a1-3)]Man(b1-4)GlcNAc(b1-4)[Fuc(a1-6)]GlcNAc
How it was run: as §1

[13] = target: GlcNAc(b1-2)[GlcNAc(b1-6)]Man(a1-6)[GlcNAc(b1-4)][GlcNAc(b1-2)Man(a1-3)]Man(b1-4)GlcNAc(b1-4)GlcNAc
How it was run: as §1

[14] = target: GlcNAc(b1-3)Fuc
How it was run: as §1

[15] = target: GlcNAc(b1-3)Gal
How it was run: as §1

[16] = target: GlcNAc(b1-3)Gal(b1-3)GalNAc
How it was run: as §1

[17] = target: GlcNAc(b1-3)Gal(b1-4)Glc
How it was run: as §1

[18] = target: GlcNAc(b1-3)Gal(b1-4)GlcNAc
How it was run: as §1

[19] = target: GlcNAc(b1-3)Gal(b1-4)GlcNAc(b1-2)Man(a1-3)[GlcNAc(b1-3)Gal(b1-4)GlcNAc(b1-2)Man(a1-6)]Man(b1-4)GlcNAc(b1-4)GlcNAc
How it was run: as §1

[20] = target: GlcNAc(b1-3)Gal(b1-4)GlcNAc(b1-2)Man(a1-3)[GlcNAc(b1-3)Gal(b1-4)GlcNAc(b1-2)Man(a1-6)]Man(b1-4)GlcNAc(b1-4)[Fuc(a1-6)]GlcNAc
How it was run: as §1

[21] = target: GlcNAc(b1-3)Gal(b1-4)GlcNAc(b1-2)[GlcNAc(b1-3)Gal(b1-4)GlcNAc(b1-6)]Man(a1-6)[GlcNAc(b1-3)Gal(b1-4)GlcNAc(b1-2)Man(a1-3)]Man(b1-4)GlcNAc(b1-4)GlcNAc
How it was run: as §1

[22] = target: GlcNAc(b1-3)Gal(b1-4)GlcNAc(b1-3)Gal(b1-4)GlcNAc
How it was run: as §1

[23] = target: GlcNAc(b1-3)Gal(b1-4)GlcNAc(b1-3)Gal(b1-4)GlcNAc(b1-2)Man(a1-3)[GlcNAc(b1-3)Gal(b1-4)GlcNAc(b1-3)Gal(b1-4)GlcNAc(b1-2)Man(a1-6)]Man(b1-4)GlcNAc(b1-4)GlcNAc
How it was run: as §1

[24] = target: GlcNAc(b1-3)Gal(b1-4)GlcNAc(b1-3)Gal(b1-4)GlcNAc(b1-2)Man(a1-3)[GlcNAc(b1-3)Gal(b1-4)GlcNAc(b1-3)Gal(b1-4)GlcNAc(b1-2)Man(a1-6)]Man(b1-4)GlcNAc(b1-4)[Fuc(a1-6)]GlcNAc
How it was run: as §1

[25] = target: GlcNAc(b1-3)Gal(b1-4)GlcNAc(b1-3)Gal(b1-4)GlcNAc(b1-2)[GlcNAc(b1-3)Gal(b1-4)GlcNAc(b1-3)Gal(b1-4)GlcNAc(b1-6)]Man(a1-6)[GlcNAc(b1-3)Gal(b1-4)GlcNAc(b1-3)Gal(b1-4)GlcNAc(b1-2)Man(a1-3)]Man(b1-4)GlcNAc(b1-4)[Fuc(a1-6)]GlcNAc
How it was run: as §1

[26] = target: GlcNAc(b1-3)Gal(b1-4)GlcNAc(b1-3)Gal(b1-4)GlcNAc(b1-3)Gal(b1-4)GlcNAc(b1-2)Man(a1-3)[GlcNAc(b1-3)Gal(b1-4)GlcNAc(b1-3)Gal(b1-4)GlcNAc(b1-3)Gal(b1-4)GlcNAc(b1-2)Man(a1-6)]Man(b1-4)GlcNAc(b1-4)GlcNAc
How it was run: as §1

[27] = target: GlcNAc(b1-3)Gal(b1-4)GlcNAc(b1-3)Gal(b1-4)GlcNAc(b1-3)Gal(b1-4)GlcNAc(b1-2)Man(a1-3)[GlcNAc(b1-3)Gal(b1-4)GlcNAc(b1-3)Gal(b1-4)GlcNAc(b1-3)Gal(b1-4)GlcNAc(b1-2)Man(a1-6)]Man(b1-4)GlcNAc(b1-4)[Fuc(a1-6)]GlcNAc
How it was run: as §1

[28] = target: GlcNAc(b1-3)Gal(b1-4)GlcNAc(b1-3)Gal(b1-4)GlcNAc(b1-3)Gal(b1-4)GlcNAc(b1-2)[GlcNAc(b1-3)Gal(b1-4)GlcNAc(b1-3)Gal(b1-4)GlcNAc(b1-3)Gal(b1-4)GlcNAc(b1-6)]Man(a1-6)[GlcNAc(b1-3)Gal(b1-4)GlcNAc(b1-3)Gal(b1-4)GlcNAc(b1-3)Gal(b1-4)GlcNAc(b1-2)Man(a1-3)]Man(b1-4)GlcNAc(b1-4)[Fuc(a1-6)]GlcNAc
How it was run: as §1

[29] = target: GlcNAc(b1-3)Gal(b1-4)GlcNAc(b1-3)Gal(b1-4)GlcNAc(b1-3)Gal(b1-4)GlcNAc(b1-3)Gal(b1-4)GlcNAc(b1-2)Man(a1-3)[GlcNAc(b1-3)Gal(b1-4)GlcNAc(b1-3)Gal(b1-4)GlcNAc(b1-3)Gal(b1-4)GlcNAc(b1-3)Gal(b1-4)GlcNAc(b1-2)Man(a1-6)]Man(b1-4)GlcNAc(b1-4)GlcNAc
How it was run: as §1

[30] = target: GlcNAc(b1-3)Gal(b1-4)GlcNAc(b1-3)Gal(b1-4)GlcNAc(b1-3)Gal(b1-4)GlcNAc(b1-3)Gal(b1-4)GlcNAc(b1-2)Man(a1-3)[GlcNAc(b1-3)Gal(b1-4)GlcNAc(b1-3)Gal(b1-4)GlcNAc(b1-3)Gal(b1-4)GlcNAc(b1-3)Gal(b1-4)GlcNAc(b1-2)Man(a1-6)]Man(b1-4)GlcNAc(b1-4)[Fuc(a1-6)]GlcNAc
How it was run: as §1

[31] = target: GlcNAc(b1-3)Gal(b1-4)GlcNAc(b1-3)Gal(b1-4)GlcNAc(b1-3)Gal(b1-4)GlcNAc(b1-3)Gal(b1-4)GlcNAc(b1-2)[GlcNAc(b1-3)Gal(b1-4)GlcNAc(b1-3)Gal(b1-4)GlcNAc(b1-3)Gal(b1-4)GlcNAc(b1-3)Gal(b1-4)GlcNAc(b1-6)]Man(a1-6)[GlcNAc(b1-3)Gal(b1-4)GlcNAc(b1-3)Gal(b1-4)GlcNAc(b1-3)Gal(b1-4)GlcNAc(b1-3)Gal(b1-4)GlcNAc(b1-2)Man(a1-3)]Man(b1-4)GlcNAc(b1-4)[Fuc(a1-6)]GlcNAc
How it was run: as §1

[32] = target: GlcNAc(b1-3)Gal(b1-4)GlcNAc(b1-3)Gal(b1-4)GlcNAc(b1-3)GalNAc
How it was run: as §1

[33] = target: GlcNAc(b1-3)Gal(b1-4)GlcNAc(b1-3)GalNAc
How it was run: as §1

[34] = target: GlcNAc(b1-3)Gal(b1-4)GlcNAc(b1-3)[GlcNAc(b1-3)Gal(b1-4)GlcNAc(b1-3)]GalNAc
How it was run: as §1

[35] = target: GlcNAc(b1-3)Gal(b1-4)GlcNAc(b1-6)[Gal(b1-3)]GalNAc
How it was run: as §1

[36] = target: GlcNAc(b1-3)Gal(b1-4)GlcNAc(b1-6)[GlcNAc(b1-3)Gal(b1-3)]GalNAc
How it was run: as §1

[37] = target: GlcNAc(b1-3)Gal(b1-4)GlcNAc(b1-6)[GlcNAc(b1-3)]Gal(b1-4)GlcNAc
How it was run: as §1

[38] = target: GlcNAc(b1-3)GalNAc
How it was run: as §1

[39] = target: GlcNAc(b1-3)Man
How it was run: as §1

[40] = target: GlcNAc(b1-3)[GlcNAc(b1-4)][GlcNAc(b1-6)]GlcNAc
How it was run: as §1

[41] = target: GlcNAc(b1-3)[GlcNAc(b1-6)]Gal(b1-4)GlcNAc
How it was run: as §1

[42] = target: GlcNAc(b1-3)[GlcNAc(b1-6)]GalNAc
How it was run: as §1

[43] = target: GlcNAc(b1-4)Gal(b1-4)GlcNAc
How it was run: as §1

[44] = target: GlcNAc(b1-4)GlcNAc
How it was run: as §1

[45] = target: GlcNAc(b1-4)GlcNAc(b1-4)GlcNAc
How it was run: as §1

B1: pTFF2 (Sus scrofa), P01359 (protein)
chain: KPAACRCSRQDPKNRVNCGFPGITSDQCFTSGCCFDSQVPGVPWCFKPLPAQESEECVMEVSARKNCGYPGISPEDCAARNCCFSDTIPEVPWCFFPMSVEACHY
Which results are given for B1?
glycan array binding signal (z-score) [1]: -0.043; glycan array binding signal (z-score) [2]: 0.194; glycan array binding signal (z-score) [3]: -0.161; glycan array binding signal (z-score) [4]: -1.4; glycan array binding signal (z-score) [5]: 0.002; glycan array binding signal (z-score) [6]: -1.66; glycan array binding signal (z-score) [7]: -0.501; glycan array binding signal (z-score) [8]: -0.215; glycan array binding signal (z-score) [9]: -0.768; glycan array binding signal (z-score) [10]: -0.986; glycan array binding signal (z-score) [11]: -0.207; glycan array binding signal (z-score) [12]: -0.059; glycan array binding signal (z-score) [13]: 0.104; glycan array binding signal (z-score) [14]: 0.291; glycan array binding signal (z-score) [15]: 1.27; glycan array binding signal (z-score) [16]: 0.04; glycan array binding signal (z-score) [17]: -0.368; glycan array binding signal (z-score) [18]: -0.194; glycan array binding signal (z-score) [19]: -0.834; glycan array binding signal (z-score) [20]: -0.454; glycan array binding signal (z-score) [21]: 0.197; glycan array binding signal (z-score) [22]: -1.26; glycan array binding signal (z-score) [23]: 0.928; glycan array binding signal (z-score) [24]: 0.168; glycan array binding signal (z-score) [25]: 1.53; glycan array binding signal (z-score) [26]: -0.212; glycan array binding signal (z-score) [27]: 0.686; glycan array binding signal (z-score) [28]: 0.559; glycan array binding signal (z-score) [29]: -0.223; glycan array binding signal (z-score) [30]: 4.15; glycan array binding signal (z-score) [31]: 0.97; glycan array binding signal (z-score) [32]: -1.25; glycan array binding signal (z-score) [33]: 3.21; glycan array binding signal (z-score) [34]: 1.85; glycan array binding signal (z-score) [35]: 0.277; glycan array binding signal (z-score) [36]: -0.295; glycan array binding signal (z-score) [37]: -0.954; glycan array binding signal (z-score) [38]: -0.56; glycan array binding signal (z-score) [39]: 0.176; glycan array binding signal (z-score) [40]: 0.277; glycan array binding signal (z-score) [41]: 1.01; glycan array binding signal (z-score) [42]: -0.497; glycan array binding signal (z-score) [43]: -1.05; glycan array binding signal (z-score) [44]: 0.562; glycan array binding signal (z-score) [45]: -0.935
